Laboratory results reported in paper PMC3798277.
Results are given in words; binding and its absence hold for the method and conditions named. Binding seen in cells or lysates may run through a third protein.

By UniProt entry, the sequences of proteins in these tests, tags left out.
UniProt P63073: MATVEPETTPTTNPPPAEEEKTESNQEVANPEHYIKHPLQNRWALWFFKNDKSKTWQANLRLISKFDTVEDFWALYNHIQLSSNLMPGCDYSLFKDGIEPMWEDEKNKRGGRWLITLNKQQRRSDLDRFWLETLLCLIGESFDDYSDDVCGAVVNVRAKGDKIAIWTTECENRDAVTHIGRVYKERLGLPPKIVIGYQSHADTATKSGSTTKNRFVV
UniProt Q99020: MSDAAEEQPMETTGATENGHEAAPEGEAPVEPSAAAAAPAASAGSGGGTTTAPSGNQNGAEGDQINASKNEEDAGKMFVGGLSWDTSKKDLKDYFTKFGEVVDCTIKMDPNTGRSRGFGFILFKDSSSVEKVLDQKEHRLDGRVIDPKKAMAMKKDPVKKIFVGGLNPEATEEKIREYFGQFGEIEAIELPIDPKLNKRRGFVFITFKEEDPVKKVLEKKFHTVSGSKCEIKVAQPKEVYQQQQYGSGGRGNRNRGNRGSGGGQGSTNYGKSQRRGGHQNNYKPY
UniProt Q9JMB7: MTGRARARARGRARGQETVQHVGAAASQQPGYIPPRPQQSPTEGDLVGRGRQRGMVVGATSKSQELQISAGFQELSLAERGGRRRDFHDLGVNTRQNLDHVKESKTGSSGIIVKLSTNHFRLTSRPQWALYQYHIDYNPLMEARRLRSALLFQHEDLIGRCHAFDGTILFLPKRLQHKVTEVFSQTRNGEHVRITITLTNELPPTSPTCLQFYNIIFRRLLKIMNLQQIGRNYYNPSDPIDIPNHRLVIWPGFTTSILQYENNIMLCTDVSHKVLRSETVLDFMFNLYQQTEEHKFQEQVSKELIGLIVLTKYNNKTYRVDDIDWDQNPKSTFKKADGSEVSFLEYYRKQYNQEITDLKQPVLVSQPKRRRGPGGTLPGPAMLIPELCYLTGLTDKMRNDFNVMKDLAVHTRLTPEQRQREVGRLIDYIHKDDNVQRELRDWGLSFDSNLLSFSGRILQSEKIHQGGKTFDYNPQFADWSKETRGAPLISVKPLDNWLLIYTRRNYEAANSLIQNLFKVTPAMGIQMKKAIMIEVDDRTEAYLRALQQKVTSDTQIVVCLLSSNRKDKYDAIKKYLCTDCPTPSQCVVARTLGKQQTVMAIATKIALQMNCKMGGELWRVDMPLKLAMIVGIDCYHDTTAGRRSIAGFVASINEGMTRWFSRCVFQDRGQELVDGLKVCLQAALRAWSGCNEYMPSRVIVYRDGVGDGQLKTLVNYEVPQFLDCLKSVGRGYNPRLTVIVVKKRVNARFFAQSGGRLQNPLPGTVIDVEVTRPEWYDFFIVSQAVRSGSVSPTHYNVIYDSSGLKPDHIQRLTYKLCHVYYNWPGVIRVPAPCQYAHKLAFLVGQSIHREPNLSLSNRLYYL

B1: MVH (Mouse Vasa Homolog/DDX4) (protein, UniProt Q61496 1-702)
chain: MGDEDWEAEILKPHVSSYVPVFEKDKYSSGANGDTFNRTSASSDIGESSKKENTSTTGGFGRGKGFGNRGFLNNKFEEGDSSGFWKESNNDCEDNQTRSRGFSKRGGCQDGNDSEASGPFRRGGRGSFRGCRGGFGLGRPNSESDQDQGTQRGGGLFGSRKPAASDSGNGDTYQSRSGSGRGGYKGLNEEVVTGSGKNSWKSETEGGESSDSQGPKVTYIPPPPPEDEDSIFAHYQTGINFDKYDTILVEVSGHDAPPAILTFEEANLCQTLNNNIAKAGYTKLTPVQKYSIPIVLAGRDLMACAQTGSGKTAAFLLPILAHMMRDGITASRFKELQEPECIIVAPTRELINQIYLEARKFSFGTCVRAVVIYGGTQFGHSVRQIVQGCNILCATPGRLMDIIGKEKIGLKQVKYLVLDEADRMLDMGFGPEMKKLISCPGMPSKEQRQTLLFSATFPEEIQRLAGDFLKSSYLFVAVGQVGGACRDVQQTILQVGQYSKREKLVEILRNIGDERTMVFVETKKKADFIATFLCQEKISTTSIHGDREQREREQALGDFRCGKCPVLVATSVAARGLDIENVQHVINFDLPSTIDEYVHRIGRTGRCGNTGRAISFFDTDSDNHLAQPLVKVLSDAQQDVPAWLEEIAFSTYVPPSFSSSTRGGAVFASVDTRKNYQGKHTLNTAGISSSQAPNPVDDESWD

Legend:
[1] = molecular target: cap binding protein eIF4E (mouse (endogenous in testis)) (UniProt P63073); test: pull-down; 7-methyl-GTP (m7GTP)-Sepharose 4B or protein G-Sepharose (control) incubated overnight at 4°C with cytoplasmic lysate of adult mouse testis in 1x PBS, 0.2% NP-40; lysate untreated or treated with 100 µg/ml RNase A; bound proteins on immunoblots
[2] = molecular target: CArG box binding factor A (CBF-A) p37 isoform (mouse (endogenous in testis)) (UniProt Q99020); test: co-IP; cytoplasmic fraction of mouse testis lysate (adult; also 30 dpp), untreated or treated with 100 µg/ml RNase A, incubated overnight with anti-CBF-A antibodies SAK22 (p37 and p42) or ICCI (p42 only) or control IgGs; Protein A-Sepharose; immunoblots

| Molecule | binding [1] | binding [2] |
| --- | --- | --- |
| CArG box binding factor A (CBF-A) p37 isoform (from UniProt Q99020 1-285) | no binding | – |
| piRNA-binding protein MIWI (from UniProt Q9JMB7 1-862) | – | no binding |
| B1 | – | no binding |
